Source: patent US20080171746A1, “Method for Preventing Cardiovascular Diseases” (priority 2005, published 2008)
At least one compound was matched to its structure with a doubt left.

Columns and labels:
[1] = system: isolated guinea pig Langendorff hearts; assay: Perfused guinea-pig Langendorff heart (bolus injection into the perfusion flow)
Description: (Modification: Bolus Injection into the Perfusion Flow)
Guinea-pigs (male, Dunkin Hartley, 400-500 g; Charles River, Sulzfeld, Germany) kept in Macrolon® cages (type IV) with free access to food (maintenance diet no. 3418, Provimi-Kliba, CH-4303 Kaiseraugst) and tap water, were killed by cervical dislocation and the thoracic cavity was opened. The heart was rapidly excised and perfused with Krebs-Henseleit solution at a constant pressure of 80 cm H2O ([…]) via retrograde cannulation of the aorta in a Langendorff apparatus. The Krebs-Henseleit solution was composed as follows (mM: NaCl 118, KCl 4.7, CaCl2 1.9, MgSO4 1.2, KH2PO4 1.2, NaHCO3 25.0, and glucose 5.0, at 37° C., gassed with 95% O2/5% CO2, v/v). […]
Precoronary perfusate flow (CF, at an initial average passive flow of 11-13 ml/min) was measured using an electromagnetic flow meter. The change in left ventricular isovolumetric pressure amplitude (LVP) calculated by subtracting the diastolic from the systolic pressure, the rate of maximal left ventricular pressure rise (dP/dtmax), and the rate of the spontaneously beating heart (HR) were continuously recorded and monitored by a data acquisition system (Notocord, hem version 3.3; F-78290 Croissy). […]

[2] = biological target: T1, PDE5A1 (Homo sapiens, UniProt O76074); assay: Inhibition of PDE5A1 activity, modified SPA (scintillation proximity assay) with recombinant enzyme; format: biochemical
T1 construct: made in house; host or cells: SF21 insect cells (baculovirus; virus made in SF9)
Description: The PDE5A1 (GB no. AF043731) was cloned via PCR from Kidney cDNA. A 5′ fragment was amplified with OZ489 (5′-[…] -3′) and OZ 493 (5′-[…]-3′), a 3′ fragment was amplified with OZ 492 (5′-[…]-3′) and OZ 490 (5′-[…]-3′). Both fragments were cloned into pCR2.1-Topo. Primers OZ 493 and OZ 492 have a nucleotide substitution that doesn't affect the translated sequence, but introduces an EcoRI cutting site. The 2 fragments were cut out of the cloning vector with EcoRI and subcloned together in a single ligation reaction into pBP9, resulting in the construct PZ 287. […] For correct expression it was subcloned with Xmal/Sacl into pBacPak8.
The recombinant baculovirus was prepared by means of homologous recombination in SF9 insect cells. The expression plasmid was cotransfected with Bac-N-Blue (Invitrogen, Groningen, NL) or Baculo-Gold DNA (Pharmingen, Hamburg) using a standard protocol (Pharmingen, Hamburg). […]
The SF21 insect cells were resuspended, at a concentration of approx. 10^7 cells/ml, in ice-cold (4° C.) homogenization buffer (20 mM Tris, pH 8.2, containing the following additions: 140 mM NaCl, 3.8 mM KCl, 1 mM EGTA, 1 mM MgCl2, 10 mM β-mercaptoethanol, 2 mM benzamidine, 0.4 mM Pefablock, 10 μM leupeptin, 10 μM pepstatin A, 5 μM trypsin inhibitor) and disrupted by ultrasonication. […] The protein content was determined by the Bradford method (BioRad, Munich) using BSA as the standard. […]

For `Cc1ccc(-c2cc(C(F)(F)F)nn2-c2ccc(S(N)(=O)=O)cc2)cc1` [Celecoxib], the coronary heart flow [1] was “selective increase in coronary heart flow” and the “PDE5 inhibition in vitro (result in words)” value [2] was “possess PDE5 activity in the μM range”.
